From article PMC10186606
These are yes or no findings as the source states them, for the method shown. In cells and extracts the contact can be indirect. Some results given as binding are weak or reduced against the parent protein; the word gives no strength.

Protein sequences, listed by entry. Tags and fused reporters are not part of them.
UniProt Q96EB6: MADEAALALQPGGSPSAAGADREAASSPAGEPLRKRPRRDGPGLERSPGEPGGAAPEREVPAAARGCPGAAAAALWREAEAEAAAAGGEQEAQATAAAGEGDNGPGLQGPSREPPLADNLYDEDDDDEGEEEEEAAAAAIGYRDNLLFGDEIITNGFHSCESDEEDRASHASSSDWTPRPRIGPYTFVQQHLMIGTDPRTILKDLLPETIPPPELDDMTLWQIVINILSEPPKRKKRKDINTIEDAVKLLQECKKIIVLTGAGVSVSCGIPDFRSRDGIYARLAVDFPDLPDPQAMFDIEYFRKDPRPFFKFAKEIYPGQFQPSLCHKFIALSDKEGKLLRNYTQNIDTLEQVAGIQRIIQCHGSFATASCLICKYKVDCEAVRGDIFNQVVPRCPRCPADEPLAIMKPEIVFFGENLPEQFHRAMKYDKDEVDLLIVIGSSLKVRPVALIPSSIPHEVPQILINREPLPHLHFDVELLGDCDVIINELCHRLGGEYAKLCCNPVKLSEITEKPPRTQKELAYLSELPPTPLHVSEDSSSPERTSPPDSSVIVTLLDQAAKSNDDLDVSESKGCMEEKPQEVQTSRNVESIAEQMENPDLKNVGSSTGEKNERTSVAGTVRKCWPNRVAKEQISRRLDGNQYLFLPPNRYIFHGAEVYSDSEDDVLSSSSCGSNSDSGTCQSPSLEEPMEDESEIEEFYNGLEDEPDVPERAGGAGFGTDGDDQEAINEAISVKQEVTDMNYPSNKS
UniProt Q00987: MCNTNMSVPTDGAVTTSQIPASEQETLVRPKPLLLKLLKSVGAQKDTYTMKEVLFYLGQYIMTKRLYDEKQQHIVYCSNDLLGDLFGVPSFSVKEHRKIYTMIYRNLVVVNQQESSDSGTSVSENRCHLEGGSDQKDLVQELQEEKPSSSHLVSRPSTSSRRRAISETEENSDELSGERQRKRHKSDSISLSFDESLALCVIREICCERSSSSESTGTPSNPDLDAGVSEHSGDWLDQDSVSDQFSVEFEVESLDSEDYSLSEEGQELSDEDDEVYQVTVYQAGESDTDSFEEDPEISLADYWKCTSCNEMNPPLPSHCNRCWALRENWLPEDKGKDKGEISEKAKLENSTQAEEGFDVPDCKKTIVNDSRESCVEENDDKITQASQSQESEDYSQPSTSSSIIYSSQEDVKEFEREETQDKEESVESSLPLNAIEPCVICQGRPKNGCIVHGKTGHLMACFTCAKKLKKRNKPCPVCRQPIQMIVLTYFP

Columns and labels:
p53 (tumor protein p53) = p53 (tumor protein p53) (UniProt P04637); assay: co-IP; HEK-293T cells, shScramble or shNr4a1, under H2O2 stimulation (100 uM H2O2); some panels with Sirt1 overexpression or Chk2 silencing; immunoblot detection; protocol as in Fu et al., 2020
[1] = target: Sirt1 (sirtuin 1 protein) (UniProt Q96EB6); assay: as above

Substance	binding (p53 (tumor protein p53))	binding [1]
Chk2 (checkpoint kinase 2) (from UniProt O96017 1-543)	binds	
MDM2 (murine double minute 2 protein) (from UniProt Q00987 1-491)		binds
